{"source": "PubChem BioAssay AID504793 (Drosophila RNAi Screening Center, 2011)", "screen": "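Whole-genome screen for parts of the DNA damage checkpoint at G2/M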 (primary screen)", "cells": "Drosophila S2R+ cells", "reagents": "long dsRNA against Drosophila genes, about 0.25 µg dsRNA per well", "time to read-out": "4 days of dsRNA, then 4 hours of drug before read-out", "treatment": "doxorubicin 0.5 µM for 4 hours to cause double-strand breaks, in cells also given a low, harmless dose of dsRNA against nbs to sensitise the assay", "measurement": "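Per-well count of mitotic cells stained for phospho-histone H3 after doxorubicin exposure, used as mitotic index; counts are raw and not normalised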", "reading the numbers": "mitotic cells: higher = more cells in mitosis, weaker G2 arrest", "rule for the call": "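a call needs confirmation in secondary tests, with other dsRNAs and a check of mitotic timing without damage, not just a high primary count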", "calls": "active = confirmed in follow-up tests; inactive = not confirmed", "note": "The screen tested about 23,000 reagents; this is an unselected part of those with a known target gene and a result. In the full data, 62 (0.27%) were called active. 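Calls come from follow-up tests whose scores are not deposited, so confirmed genes may have low counts here; counts are not normalised per plate.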 Raw values vary from plate to plate and are shown uncorrected. Entries without a mark were called inactive. Names joined by + are all predicted targets of the reagent."}
{"predicted target":"CG13227","amplicon":"DRSC06347","mitotic cells, replicate 1":11}
{"predicted target":"CG13227","amplicon":"DRSC27529","mitotic cells, replicate 1":2}
{"predicted target":"CG8202","amplicon":"DRSC16396","mitotic cells, replicate 1":5}
{"predicted target":"CG31093","amplicon":"DRSC15689","mitotic cells, replicate 1":8}
{"predicted target":"CG11737","amplicon":"DRSC14364","mitotic cells, replicate 1":3}
{"predicted target":"CG7148","amplicon":"DRSC11802","mitotic cells, replicate 1":4}
{"predicted target":"CG14767","amplicon":"DRSC06500","mitotic cells, replicate 1":7}
{"predicted target":"CG14767","amplicon":"DRSC28418","mitotic cells, replicate 1":9}
{"predicted target":"CG5973","amplicon":"DRSC02918","mitotic cells, replicate 1":8}
{"predicted target":"Strump","amplicon":"DRSC09872","mitotic cells, replicate 1":4}
{"predicted target":"AdamTS-A","amplicon":"DRSC14992","mitotic cells, replicate 1":4}
{"predicted target":"AdamTS-A","amplicon":"DRSC15966","mitotic cells, replicate 1":5}
{"predicted target":"CG15890","amplicon":"DRSC19737","mitotic cells, replicate 1":15}
{"predicted target":"ATbp","amplicon":"DRSC20906","mitotic cells, replicate 1":11}
{"predicted target":"ATbp","amplicon":"DRSC29661","mitotic cells, replicate 1":8}
{"predicted target":"CG8677","amplicon":"DRSC03107","mitotic cells, replicate 1":4}
{"predicted target":"CG8677","amplicon":"DRSC23559","mitotic cells, replicate 1":2}
{"predicted target":"CG3168","amplicon":"DRSC18287","mitotic cells, replicate 1":2}
{"predicted target":"CG3168","amplicon":"DRSC25481","mitotic cells, replicate 1":2}
{"predicted target":"CG11638","amplicon":"DRSC18167","mitotic cells, replicate 1":18}
{"predicted target":"CG11638","amplicon":"DRSC18640","mitotic cells, replicate 1":14}
{"predicted target":"CG14657","amplicon":"DRSC12219","mitotic cells, replicate 1":5}
{"predicted target":"CG14657","amplicon":"DRSC12243","mitotic cells, replicate 1":8}
{"predicted target":"CG6071","amplicon":"DRSC10579","mitotic cells, replicate 1":8}
{"predicted target":"Meics","amplicon":"DRSC11413","mitotic cells, replicate 1":2}
{"predicted target":"Meics","amplicon":"DRSC29541","mitotic cells, replicate 1":9}
{"predicted target":"CG6108 (retired record)","amplicon":"DRSC02929","mitotic cells, replicate 1":5}
{"predicted target":"Snapin + HemK2","amplicon":"DRSC26185","mitotic cells, replicate 1":2}

In a second layout: 6 of the entries above
predicted target | amplicon | mitotic cells, replicate 1
ATbp | DRSC20906 | 11
ATbp | DRSC29661 | 8
CG8677 | DRSC03107 | 4
CG8677 | DRSC23559 | 2
CG3168 | DRSC18287 | 2
CG3168 | DRSC25481 | 2

The results go on:
{"predicted target":"CG7878","amplicon":"DRSC16330","mitotic cells, replicate 1":6}
{"predicted target":"CG7878","amplicon":"DRSC23990","mitotic cells, replicate 1":5}
{"predicted target":"pea","amplicon":"DRSC07120","mitotic cells, replicate 1":6}
{"predicted target":"pea","amplicon":"DRSC29708","mitotic cells, replicate 1":2}
{"predicted target":"Alp1","amplicon":"DRSC11781","mitotic cells, replicate 1":7}
{"predicted target":"CG40298","amplicon":"DRSC22274","mitotic cells, replicate 1":10}
{"predicted target":"GNBP-like3","amplicon":"DRSC06385","mitotic cells, replicate 1":4}
{"predicted target":"dlt","amplicon":"DRSC08705","mitotic cells, replicate 1":10}
{"predicted target":"dlt","amplicon":"DRSC26168","mitotic cells, replicate 1":4}
{"predicted target":"Obp50a","amplicon":"DRSC22152","mitotic cells, replicate 1":10}
{"predicted target":"Obp50a","amplicon":"DRSC28404","mitotic cells, replicate 1":5}
{"predicted target":"XRCC1","amplicon":"DRSC18729","mitotic cells, replicate 1":9}
{"predicted target":"XRCC1","amplicon":"DRSC28480","mitotic cells, replicate 1":4}
{"predicted target":"mRpS18B","amplicon":"DRSC02107","mitotic cells, replicate 1":6}
{"predicted target":"Gfat1","amplicon":"DRSC21219","mitotic cells, replicate 1":8}
{"predicted target":"Gfat1","amplicon":"DRSC29612","mitotic cells, replicate 1":6}
